# Data reported in patent US20260060972A1, “Quantitative Method of Determining a Mental Status Based on DRD1 and/or DRD5, and its Application Thereof” (priority 2022, published 2026).
# Entries after “also recorded” stand apart in the source; their conditions may differ. At least one structure is not confirmed: it was looked up by name or label, or the drawing left a doubt.
# What was measured:
# [1] = tested on: 2.8-kb human DRD1 gene promoter; assay: Dual-luciferase reporter assay of human DRD1 gene promoter in SH-SY5Y cells
# human DRD1 gene = assay: DRD1 mRNA expression by quantitative real time-PCR in SH-SY5Y cells
# human DRD1 protein = conditions: ICC staining, 36 hrs (FIG. 2D, 2E)
SMILES,"relative Luciferase activity of DRD1 under treatment of SCH and antipsychotic ([1]; co-treatment of SCH (FIG. 5A, 6A))","relative Luciferase activity of DRD1 under treatment of SKF and antipsychotic ([1]; co-treatment of SKF (FIG. 5B, 6B))",effect on SCH23390/SKF81297-altered DRD1 promoter activity ([1]; co-treatment with SCH23390 or SKF81297),"human DRD1 gene promoter activity, treatment alone ([1]; 2.8-kb promoter luciferase reporter, SCH23390 and SKF81297 for 36 hrs (FIG. 4A, 4B))","DRD1 mRNA expression, time response (human DRD1 gene; 10 μM, 12, 18, 24, 30 or 32 hrs, SH-SY5Y cells (FIG. 1A))","DRD1 mRNA and protein expression, treatment alone (summary) (human DRD1 gene; 10 μM, SH-SY5Y cells)","DRD1 mRNA expression, treatment alone (human DRD1 gene; 10 μM, treatment for 18 hrs (FIG. 2A, 3A))","DRD1 mRNA expression, treatment alone (human DRD1 gene; 10 μM, treatment for 24 hrs (FIG. 2A, 3A))","counting of DRD1-positive cells, treatment alone (human DRD1 protein)"
CN1CCN(C2=Nc3cc(Cl)ccc3Nc3ccccc32)CC1 [Clozapine],partial DRD1 antagonist effect,partial DRD1 antagonist effect,trans-stabilize SCH23390/SKF81297-altered DRD1 promoter activity; also recorded: reverse and normalize either SCH23390 or SKF81297-altered human DRD1 promoter activity,,,,,,
"CN1CCc2cc(Cl)c(O)cc2[C@@H](c2ccccc2)C1 [SCH23390, SCH-23390]",,,,trans-repressed DRD1 promoter activity; also recorded: transactivates,"decreased DRD1 mRNA expression 18 and 24 hrs later, but not at other time points",decreases,decreased DRD1 mRNA expression,markedly decreased DRD1 mRNA expression,significantly decreased the counting
